Data as given in PubChem BioAssay AID1259405 (NCATS, 2018)
Purpose: 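Knock-downs that lift recombinant protein yield in hamster ovary cells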 (primary screen). System: Chinese hamster CHO-K1 ovary cells with stable secreted eGFP expression. Reagent: single siRNA against mouse genes, 0.8 pmol siRNA per well (2 µl of 400 nM stock). Duration: 3 days. Detection: 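Per-well intracellular GFP measured by laser scanning cytometry, plus viability from ATP luminescence, each relative to plate median of non-targeting control wells, in %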. Reading the numbers: GFP, % of control: higher = more GFP per well, higher productivity; viability (ATP), % of control: higher = more viable cells (more ATP). Hit rule: 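Called active when intracellular GFP, relative to negative control, is at or above 120%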.
The deposit covers about 50,000 reagents; shown is a random part of them. Of all reagents, about 4,000 (8%) are marked active. 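Mouse siRNA library applied to hamster cells; one well for each siRNA.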 Unmarked entries are inactive. The numbers tell different reagents against one gene apart.

target gene | reagent no. | GFP, % of control | viability (ATP), % of control
Ankrd27 (ankyrin repeat domain 27) | 1 | 103 | 85.9
Ankrd27 (ankyrin repeat domain 27) | 2 | 70.7 | 66.6
Ankrd27 (ankyrin repeat domain 27) | 3 | 67.6 | 69.6
Prss23 (serine protease 23) | 1 | 91.3 | 70.5
Prss23 (serine protease 23) | 2 | 71.1 | 72
Prss23 (serine protease 23) | 3 | 31.7 | 25.5
Klrc3 (killer cell lectin-like receptor subfamily C, member 3) | 1 | 38.1 | 28.2
Klrc3 (killer cell lectin-like receptor subfamily C, member 3) | 2 | 105 | 93.7
Klrc3 (killer cell lectin-like receptor subfamily C, member 3) | 3 | 62 | 49.7
Mettl25b (methyltransferase like 25B) | 1 | 42.7 | 40.9
Mettl25b (methyltransferase like 25B) | 2 | 75.9 | 69.1
Mettl25b (methyltransferase like 25B) | 3 | 146 (active) | 147
Mettl25b (methyltransferase like 25B) | 4 | 83.3 | 87
Mettl25b (methyltransferase like 25B) | 5 | 56.8 | 77.3
Mettl25b (methyltransferase like 25B) | 6 | 68.9 | 86.8
Slc5a1 | 1 | 93.4 | 80.8
Slc5a1 | 2 | 135 (active) | 133
Slc5a1 | 3 | 65.5 | 62.5
Fstl3 (follistatin-like 3) | 1 | 74.5 | 69
Fstl3 (follistatin-like 3) | 2 | 164 (active) | 123
Fstl3 (follistatin-like 3) | 3 | 60.3 | 37.7
Emp1 (epithelial membrane protein 1) | 1 | 69.4 | 64.1
Emp1 (epithelial membrane protein 1) | 2 | 75.3 | 90.3
Emp1 (epithelial membrane protein 1) | 3 | 50.7 | 78.5
Kctd18 (potassium channel tetramerisation domain containing 18) | 1 | 33.2 | 33.8
Kctd18 (potassium channel tetramerisation domain containing 18) | 2 | 73.9 | 74.8
Kctd18 (potassium channel tetramerisation domain containing 18) | 3 | 62.4 | 74.2
Klrg2 (killer cell lectin-like receptor subfamily G, member 2) | 1 | 74.3 | 45.6
Klrg2 (killer cell lectin-like receptor subfamily G, member 2) | 2 | 85.1 | 93.1
Klrg2 (killer cell lectin-like receptor subfamily G, member 2) | 3 | 102 | 75.7
Elmod3 (ELMO/CED-12 domain containing 3) | 1 | 46.8 | 65.4
Elmod3 (ELMO/CED-12 domain containing 3) | 2 | 50.4 | 35.8
Elmod3 (ELMO/CED-12 domain containing 3) | 3 | 69.6 | 79.4
Vrk2 (vaccinia related kinase 2) | 1 | 70.8 | 63.1
Vrk2 (vaccinia related kinase 2) | 2 | 99.2 | 86.1
Vrk2 (vaccinia related kinase 2) | 3 | 71.1 | 73.7
Trim39 (tripartite motif-containing 39) | 1 | 65.8 | 59.1
Trim39 (tripartite motif-containing 39) | 2 | 105 | 85.4
Trim39 (tripartite motif-containing 39) | 3 | 110 | 137
Mgat4c (MGAT4 family, member C) | 1 | 67.8 | 70
Mgat4c (MGAT4 family, member C) | 2 | 30.6 | 28.9
Mgat4c (MGAT4 family, member C) | 3 | 74.7 | 107
Ackr2 (atypical chemokine receptor 2) | 1 | 95.1 | 67.6
Ackr2 (atypical chemokine receptor 2) | 2 | 95.9 | 62.4
Ackr2 (atypical chemokine receptor 2) | 3 | 71.4 | 80.7

The list goes on, starting with the last 13 of the part before.
target gene | reagent no. | GFP, % of control | viability (ATP), % of control
Elmod3 (ELMO/CED-12 domain containing 3) | 3 | 69.6 | 79.4
Vrk2 (vaccinia related kinase 2) | 1 | 70.8 | 63.1
Vrk2 (vaccinia related kinase 2) | 2 | 99.2 | 86.1
Vrk2 (vaccinia related kinase 2) | 3 | 71.1 | 73.7
Trim39 (tripartite motif-containing 39) | 1 | 65.8 | 59.1
Trim39 (tripartite motif-containing 39) | 2 | 105 | 85.4
Trim39 (tripartite motif-containing 39) | 3 | 110 | 137
Mgat4c (MGAT4 family, member C) | 1 | 67.8 | 70
Mgat4c (MGAT4 family, member C) | 2 | 30.6 | 28.9
Mgat4c (MGAT4 family, member C) | 3 | 74.7 | 107
Ackr2 (atypical chemokine receptor 2) | 1 | 95.1 | 67.6
Ackr2 (atypical chemokine receptor 2) | 2 | 95.9 | 62.4
Ackr2 (atypical chemokine receptor 2) | 3 | 71.4 | 80.7
Kdelr1 | 1 | 66.8 | 88.8
Kdelr1 | 2 | 63.6 | 59.6
Ccl20 (C-C motif chemokine ligand 20) | 1 | 59.6 | 52
Ccl20 (C-C motif chemokine ligand 20) | 2 | 35.2 | 25.1
Ccl20 (C-C motif chemokine ligand 20) | 3 | 61.1 | 68.4
Mtarc2 (mitochondrial amidoxime reducing component 2) | 1 | 58.7 | 54.8
Mtarc2 (mitochondrial amidoxime reducing component 2) | 2 | 49.7 | 49.7
Mtarc2 (mitochondrial amidoxime reducing component 2) | 3 | 79.6 | 85.6
Scnn1g (sodium channel, nonvoltage-gated 1 gamma) | 1 | 40.8 | 52.8
Scnn1g (sodium channel, nonvoltage-gated 1 gamma) | 2 | 100 | 60.1
Scnn1g (sodium channel, nonvoltage-gated 1 gamma) | 3 | 87.1 | 70.7
4932415M13Rik (RIKEN cDNA 4932415M13 gene) | 1 | 135 (active) | 72.9
4932415M13Rik (RIKEN cDNA 4932415M13 gene) | 2 | 95.7 | 91.2
4932415M13Rik (RIKEN cDNA 4932415M13 gene) | 3 | 71.9 | 70.6
Lbh (limb-bud and heart) | 1 | 67.8 | 71.9
Lbh (limb-bud and heart) | 2 | 52.7 | 48.8
Lbh (limb-bud and heart) | 3 | 96.8 | 71.4
Fetub (fetuin beta) | 1 | 50.7 | 63.9
Fetub (fetuin beta) | 2 | 27.5 | 50.6
Fetub (fetuin beta) | 3 | 95.6 | 83.4
9930012K11Rik (RIKEN cDNA 9930012K11 gene) | 1 | 124 (active) | 77.2
9930012K11Rik (RIKEN cDNA 9930012K11 gene) | 2 | 82.5 | 66.5
9930012K11Rik (RIKEN cDNA 9930012K11 gene) | 3 | 107 | 72
Gm5444 (predicted gene 5444) | 1 | 77.6 | 80.5
Gm5444 (predicted gene 5444) | 2 | 86.3 | 49.3
Gm5444 (predicted gene 5444) | 3 | 112 | 75.4
Lrrn2 (leucine rich repeat protein 2, neuronal) | 1 | 86.8 | 89.4
Lrrn2 (leucine rich repeat protein 2, neuronal) | 2 | 51.4 | 55.1
Lrrn2 (leucine rich repeat protein 2, neuronal) | 3 | 32.2 | 24.3
Pofut4 (protein O-fucosyltransferase 4) | 1 | 110 | 121
Pofut4 (protein O-fucosyltransferase 4) | 2 | 105 | 121
Pofut4 (protein O-fucosyltransferase 4) | 3 | 108 | 133
Cyp3a41a (cytochrome P450, family 3, subfamily a, polypeptide 41A) | 1 | 73.3 | 36.8
Cyp3a41a (cytochrome P450, family 3, subfamily a, polypeptide 41A) | 2 | 69.7 | 78.5
Cyp3a41a (cytochrome P450, family 3, subfamily a, polypeptide 41A) | 3 | 35.3 | 59.9
Dusp18 (dual specificity phosphatase 18) | 1 | 38.4 | 58.4
Dusp18 (dual specificity phosphatase 18) | 2 | 88.5 | 92.8
Prrc2b (proline-rich coiled-coil 2B) | 1 | 82.9 | 59.4
Prrc2b (proline-rich coiled-coil 2B) | 2 | 78.3 | 84.9
Prrc2b (proline-rich coiled-coil 2B) | 3 | 88.2 | 71.4
Maoa (monoamine oxidase A) | 1 | 107 | 79.1
Maoa (monoamine oxidase A) | 2 | 87.1 | 59.7
Maoa (monoamine oxidase A) | 3 | 43.6 | 51.3
Ciao3 (cytosolic iron-sulfur assembly component 3) | 1 | 230 (active) | 61.6
Ciao3 (cytosolic iron-sulfur assembly component 3) | 2 | 67.7 | 35
Ciao3 (cytosolic iron-sulfur assembly component 3) | 3 | 76.6 | 89
Ciao3 (cytosolic iron-sulfur assembly component 3) | 4 | 89.6 | 86.1
Ciao3 (cytosolic iron-sulfur assembly component 3) | 5 | 59.6 | 93.2
Ciao3 (cytosolic iron-sulfur assembly component 3) | 6 | 86.3 | 92.9
Pdpr (pyruvate dehydrogenase phosphatase regulatory subunit) | 1 | 85.4 | 70.7
Pdpr (pyruvate dehydrogenase phosphatase regulatory subunit) | 2 | 96.7 | 50.2
Pdpr (pyruvate dehydrogenase phosphatase regulatory subunit) | 3 | 137 (active) | 83.4
Sgk1 (serum/glucocorticoid regulated kinase 1) | 1 | 73 | 76
Gm9734 (predicted gene 9734) | 1 | 88.5 | 82
Gm9734 (predicted gene 9734) | 2 | 41.5 | 36.9
Gm9734 (predicted gene 9734) | 3 | 74.4 | 58.3
Impdh1 (inosine monophosphate dehydrogenase 1) | 1 | 107 | 77.7
Impdh1 (inosine monophosphate dehydrogenase 1) | 2 | 139 (active) | 36.6
Impdh1 (inosine monophosphate dehydrogenase 1) | 3 | 94.4 | 95.4
Tmem14a (transmembrane protein 14A) | 1 | 62.4 | 75.2
Tmem14a (transmembrane protein 14A) | 2 | 99.6 | 128
Tmem14a (transmembrane protein 14A) | 3 | 74.7 | 90.6
